Source: the supplement of paper PMC8728848
The list shows a part of the results.

Tests used:
Test in all cases: glycan array binding signal (z-score within array); higher = stronger binding
Conditions in all cases: glycan notation: IUPAC condensed, linker removed
[1] = molecular target: GlcNAc(b1-3)Gal(b1-4)GlcNAc(b1-3)Gal(b1-4)GlcNAc(b1-3)GalNAc
Summary of the method: (§1)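 Arrays were curated from the Consortium for Functional Glycomics database, 3228 in total, and kept only where the protein sequence was available. Binding is expressed as a within-array Z-score. This score was averaged across arrays of the same protein sequence at different concentrations or buffers and across linkers, and negative values can be read as non-binding.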

[2] = molecular target: GlcNAc(b1-3)Gal(b1-4)GlcNAc(b1-3)GalNAc
Summary of the method: as §1

[3] = molecular target: GlcNAc(b1-3)Gal(b1-4)GlcNAc(b1-3)[GlcNAc(b1-3)Gal(b1-4)GlcNAc(b1-3)]GalNAc
Summary of the method: as §1

[4] = molecular target: GlcNAc(b1-3)Gal(b1-4)GlcNAc(b1-6)[Gal(b1-3)]GalNAc
Summary of the method: as §1

[5] = molecular target: GlcNAc(b1-3)Gal(b1-4)GlcNAc(b1-6)[GlcNAc(b1-3)Gal(b1-3)]GalNAc
Summary of the method: as §1

[6] = molecular target: GlcNAc(b1-3)Gal(b1-4)GlcNAc(b1-6)[GlcNAc(b1-3)]Gal(b1-4)GlcNAc
Summary of the method: as §1

GlcNAc(b1-3)GalNAc = molecular target: GlcNAc(b1-3)GalNAc
Summary of the method: as §1

GlcNAc(b1-3)Man = molecular target: GlcNAc(b1-3)Man
Summary of the method: as §1

[7] = molecular target: GlcNAc(b1-3)[GlcNAc(b1-4)][GlcNAc(b1-6)]GlcNAc
Summary of the method: as §1

[8] = molecular target: GlcNAc(b1-3)[GlcNAc(b1-6)]Gal(b1-4)GlcNAc
Summary of the method: as §1

[9] = molecular target: GlcNAc(b1-3)[GlcNAc(b1-6)]GalNAc
Summary of the method: as §1

[10] = molecular target: GlcNAc(b1-4)Gal(b1-4)GlcNAc
Summary of the method: as §1

GlcNAc(b1-4)GlcNAc = molecular target: GlcNAc(b1-4)GlcNAc
Summary of the method: as §1

[11] = molecular target: GlcNAc(b1-4)GlcNAc(b1-4)GlcNAc
Summary of the method: as §1

[12] = molecular target: GlcNAc(b1-4)GlcNAc(b1-4)GlcNAc(b1-4)GlcNAc(b1-4)GlcNAc
Summary of the method: as §1

[13] = molecular target: GlcNAc(b1-4)GlcNAc(b1-4)GlcNAc(b1-4)GlcNAc(b1-4)GlcNAc(b1-4)GlcNAc
Summary of the method: as §1

[14] = molecular target: GlcNAc(b1-4)[GlcNAc(b1-6)]GalNAc
Summary of the method: as §1

[15] = molecular target: GlcNAc(b1-6)Gal(b1-4)GlcNAc
Summary of the method: as §1

GlcNAc(b1-6)GalNAc = molecular target: GlcNAc(b1-6)GalNAc
Summary of the method: as §1

[16] = molecular target: GlcNAc6S(b1-3)Gal(b1-4)GlcNAc
Summary of the method: as §1

Kdn(a2-3)Gal(b1-3)GalNAc = molecular target: Kdn(a2-3)Gal(b1-3)GalNAc
Summary of the method: as §1

Kdn(a2-3)Gal(b1-3)GlcNAc = molecular target: Kdn(a2-3)Gal(b1-3)GlcNAc
Summary of the method: as §1

Kdn(a2-3)Gal(b1-4)Glc = molecular target: Kdn(a2-3)Gal(b1-4)Glc
Summary of the method: as §1

Kdn(a2-3)Gal(b1-4)GlcNAc = molecular target: Kdn(a2-3)Gal(b1-4)GlcNAc
Summary of the method: as §1

[17] = molecular target: Kdn(a2-3)Gal(b1-4)[Fuc(a1-3)]GlcNAc
Summary of the method: as §1

Kdn(a2-6)Gal(b1-4)GlcNAc = molecular target: Kdn(a2-6)Gal(b1-4)GlcNAc
Summary of the method: as §1

[18] = molecular target: Man(a1-2)Man(a1-2)Man(a1-3)Man
Summary of the method: as §1

[19] = molecular target: Man(a1-2)Man(a1-2)Man(a1-6)[Man(a1-3)]Man
Summary of the method: as §1

Man(a1-2)Man(a1-3)Man = molecular target: Man(a1-2)Man(a1-3)Man
Summary of the method: as §1

[20] = molecular target: Man(a1-2)Man(a1-3)[Man(a1-2)Man(a1-6)]Man
Summary of the method: as §1

[21] = molecular target: Man(a1-2)Man(a1-3)[Man(a1-2)Man(a1-6)]Man(a1-6)[Man(a1-2)Man(a1-2)Man(a1-3)]Man
Summary of the method: as §1

[22] = molecular target: Man(a1-2)Man(a1-3)[Man(a1-2)Man(a1-6)]Man(a1-6)[Man(a1-2)Man(a1-2)Man(a1-3)]Man(b1-4)GlcNAc(b1-4)GlcNAc
Summary of the method: as §1

[23] = molecular target: Man(a1-2)Man(a1-3)[Man(a1-6)]Man(a1-6)[Man(a1-2)Man(a1-3)]Man(b1-4)GlcNAc(b1-4)GlcNAc
Summary of the method: as §1

[24] = molecular target: Man(a1-2)Man(a1-6)[Man(a1-3)]Man(a1-6)[Man(a1-2)Man(a1-2)Man(a1-3)]Man
Summary of the method: as §1

[25] = molecular target: Man(a1-2)Man(a1-6)[Man(a1-3)]Man(a1-6)[Man(a1-2)Man(a1-2)Man(a1-3)]Man(b1-4)GlcNAc(b1-4)GlcNAc
Summary of the method: as §1

Man(a1-3)[Man(a1-6)]Man = molecular target: Man(a1-3)[Man(a1-6)]Man
Summary of the method: as §1

[26] = molecular target: Man(a1-3)[Man(a1-6)]Man(a1-6)[Man(a1-2)Man(a1-3)]Man(b1-4)GlcNAc(b1-4)GlcNAc
Summary of the method: as §1

[27] = molecular target: Man(a1-3)[Man(a1-6)]Man(a1-6)[Man(a1-3)]Man
Summary of the method: as §1

[28] = molecular target: Man(a1-3)[Man(a1-6)]Man(a1-6)[Man(a1-3)]Man(b1-4)GlcNAc(b1-4)GlcNAc
Summary of the method: as §1

[29] = molecular target: Man(a1-3)[Man(a1-6)]Man(b1-4)GlcNAc(b1-4)GlcNAc
Summary of the method: as §1

[30] = molecular target: Man(a1-3)[Man(a1-6)]Man(b1-4)GlcNAc(b1-4)[Fuc(a1-6)]GlcNAc
Summary of the method: as §1

Man(a1-6)Man = molecular target: Man(a1-6)Man
Summary of the method: as §1

Man(b1-4)GlcNAc = molecular target: Man(b1-4)GlcNAc
Summary of the method: as §1

MurNAc(b1-4)GlcNAc = molecular target: MurNAc(b1-4)GlcNAc
Summary of the method: as §1

Neu5Ac(a2-3)Gal = molecular target: Neu5Ac(a2-3)Gal
Summary of the method: as §1

B1: Pwp6 (Candida glabrata) (protein)
chain: MGSSHHHHHHSSGLVPRGSHMASANLPKLTNICQIPDNVKKTSGFKGEIRRIGLFPPGGDYTYLLKFPSTGSTASDTISLTTKPQLSTSGWFPSLFGHTYFIKADLLVYMVAYFVPTETGEYTFKLVNSDDAAVMYVGNPSAFPCGSIDTWPEPRKEDINVCDKISASTKLYMEKGLAYPVRLVWYNGGGDGQFNAQFIDPSGTTHTDWNGYVWQYDACTDCDYK
- glycan array binding signal (z-score) [1]: -0.218
- glycan array binding signal (z-score) [2]: 1.84
- glycan array binding signal (z-score) [3]: 0.485
- glycan array binding signal (z-score) [4]: 0.312
- glycan array binding signal (z-score) [5]: 0.366
- glycan array binding signal (z-score) [6]: 1.97
- glycan array binding signal (z-score) (GlcNAc(b1-3)GalNAc): -0.863
- glycan array binding signal (z-score) (GlcNAc(b1-3)Man): 0.254
- glycan array binding signal (z-score) [7]: -0.466
- glycan array binding signal (z-score) [8]: -0.62
- glycan array binding signal (z-score) [9]: -0.362
- glycan array binding signal (z-score) [10]: -0.713
- glycan array binding signal (z-score) (GlcNAc(b1-4)GlcNAc): 0.223
- glycan array binding signal (z-score) [11]: -0.73
- glycan array binding signal (z-score) [12]: 0.227
- glycan array binding signal (z-score) [13]: -0.261
- glycan array binding signal (z-score) [14]: -0.583
- glycan array binding signal (z-score) [15]: -0.115
- glycan array binding signal (z-score) (GlcNAc(b1-6)GalNAc): -0.434
- glycan array binding signal (z-score) [16]: -0.643
- glycan array binding signal (z-score) (Kdn(a2-3)Gal(b1-3)GalNAc): 0.281
- glycan array binding signal (z-score) (Kdn(a2-3)Gal(b1-3)GlcNAc): -0.179
- glycan array binding signal (z-score) (Kdn(a2-3)Gal(b1-4)Glc): -0.386
- glycan array binding signal (z-score) (Kdn(a2-3)Gal(b1-4)GlcNAc): -0.49
- glycan array binding signal (z-score) [17]: -0.259
- glycan array binding signal (z-score) (Kdn(a2-6)Gal(b1-4)GlcNAc): -0.075
- glycan array binding signal (z-score) [18]: -0.521
- glycan array binding signal (z-score) [19]: -0.253
- glycan array binding signal (z-score) (Man(a1-2)Man(a1-3)Man): -0.665
- glycan array binding signal (z-score) [20]: -0.667
- glycan array binding signal (z-score) [21]: -0.603
- glycan array binding signal (z-score) [22]: 0.029
- glycan array binding signal (z-score) [23]: -0.516
- glycan array binding signal (z-score) [24]: -0.505
- glycan array binding signal (z-score) [25]: -0.425
- glycan array binding signal (z-score) (Man(a1-3)[Man(a1-6)]Man): -0.736
- glycan array binding signal (z-score) [26]: -0.21
- glycan array binding signal (z-score) [27]: 0.852
- glycan array binding signal (z-score) [28]: -0.092
- glycan array binding signal (z-score) [29]: -0.226
- glycan array binding signal (z-score) [30]: 0.343
- glycan array binding signal (z-score) (Man(a1-6)Man): -0.419
- glycan array binding signal (z-score) (Man(b1-4)GlcNAc): -0.473
- glycan array binding signal (z-score) (MurNAc(b1-4)GlcNAc): -0.127
- glycan array binding signal (z-score) (Neu5Ac(a2-3)Gal): -0.657
